{"sequences": {"note": "By UniProt entry, the sequences of proteins in these tests, tags left out.", "UniProt Q9Y5Y9, whole entry, looked up": "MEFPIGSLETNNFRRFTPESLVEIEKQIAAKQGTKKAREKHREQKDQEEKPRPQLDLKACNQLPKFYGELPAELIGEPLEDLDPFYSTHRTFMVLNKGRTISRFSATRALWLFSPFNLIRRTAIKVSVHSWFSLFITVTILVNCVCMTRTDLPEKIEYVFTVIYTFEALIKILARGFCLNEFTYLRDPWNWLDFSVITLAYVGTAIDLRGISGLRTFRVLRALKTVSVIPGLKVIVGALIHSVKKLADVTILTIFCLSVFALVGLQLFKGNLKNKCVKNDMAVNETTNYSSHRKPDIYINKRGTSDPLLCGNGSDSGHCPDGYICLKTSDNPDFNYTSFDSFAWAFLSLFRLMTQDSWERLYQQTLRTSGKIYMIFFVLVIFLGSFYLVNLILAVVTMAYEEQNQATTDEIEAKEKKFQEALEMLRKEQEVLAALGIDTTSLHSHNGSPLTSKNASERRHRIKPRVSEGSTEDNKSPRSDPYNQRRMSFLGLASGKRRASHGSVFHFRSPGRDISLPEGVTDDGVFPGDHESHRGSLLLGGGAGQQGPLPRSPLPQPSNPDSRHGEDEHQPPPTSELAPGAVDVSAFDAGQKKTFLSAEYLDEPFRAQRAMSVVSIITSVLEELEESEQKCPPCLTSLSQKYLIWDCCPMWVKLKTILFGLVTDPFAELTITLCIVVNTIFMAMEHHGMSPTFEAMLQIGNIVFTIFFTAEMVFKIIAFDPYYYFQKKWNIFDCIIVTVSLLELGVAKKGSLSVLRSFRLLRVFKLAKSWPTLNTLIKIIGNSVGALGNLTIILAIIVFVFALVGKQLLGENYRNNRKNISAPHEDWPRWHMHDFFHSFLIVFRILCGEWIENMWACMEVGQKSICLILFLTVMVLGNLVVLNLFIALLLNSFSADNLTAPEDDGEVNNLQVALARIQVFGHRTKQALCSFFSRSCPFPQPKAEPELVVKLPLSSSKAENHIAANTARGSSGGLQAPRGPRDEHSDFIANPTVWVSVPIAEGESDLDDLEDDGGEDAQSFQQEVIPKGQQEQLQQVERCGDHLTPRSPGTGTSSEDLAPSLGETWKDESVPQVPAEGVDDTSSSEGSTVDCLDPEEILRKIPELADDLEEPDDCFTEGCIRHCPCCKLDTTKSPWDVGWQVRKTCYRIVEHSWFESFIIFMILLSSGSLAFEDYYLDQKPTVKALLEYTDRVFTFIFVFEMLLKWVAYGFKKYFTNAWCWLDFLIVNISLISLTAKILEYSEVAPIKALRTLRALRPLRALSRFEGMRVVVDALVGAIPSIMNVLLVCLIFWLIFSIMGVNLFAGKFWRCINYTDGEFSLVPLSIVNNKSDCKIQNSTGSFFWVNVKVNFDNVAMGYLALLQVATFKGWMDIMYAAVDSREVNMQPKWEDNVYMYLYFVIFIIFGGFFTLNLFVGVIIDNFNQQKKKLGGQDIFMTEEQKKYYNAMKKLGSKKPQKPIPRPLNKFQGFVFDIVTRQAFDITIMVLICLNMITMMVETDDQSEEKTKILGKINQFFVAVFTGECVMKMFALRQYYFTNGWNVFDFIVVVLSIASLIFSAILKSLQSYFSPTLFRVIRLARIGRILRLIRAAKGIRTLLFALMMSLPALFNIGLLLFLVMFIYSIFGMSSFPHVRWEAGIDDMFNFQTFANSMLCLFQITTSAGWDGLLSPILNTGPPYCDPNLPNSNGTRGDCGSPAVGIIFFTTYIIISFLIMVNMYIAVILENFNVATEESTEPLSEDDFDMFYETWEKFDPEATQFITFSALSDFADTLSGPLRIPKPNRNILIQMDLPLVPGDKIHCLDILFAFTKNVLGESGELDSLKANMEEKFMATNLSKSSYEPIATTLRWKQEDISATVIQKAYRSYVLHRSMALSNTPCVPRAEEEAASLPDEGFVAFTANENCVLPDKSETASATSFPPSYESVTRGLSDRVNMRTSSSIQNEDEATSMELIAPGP"}, "source": "patent US20180105561A1", "about": "“ANALOGS OF SODIUM CHANNEL PEPTIDE TOXIN” (priority 2010, published 2018)", "origin": "cited, not measured here", "target": "Nav1.8 (Homo sapiens, UniProt Q9Y5Y9)", "details": "read-out: TTX IC50; cited from earlier work", "data": [{"smiles": "NC1=N[C@H](O)[C@H]2[C@H]3O[C@]4(O)O[C@@H]([C@@H](O)[C@@]2(N1)[C@@H]4O)[C@]3(O)CO", "note": "[TTX, tetrodotoxin]", "values": [{"measurement": "IC50", "result": 50, "unit": "µM"}]}]}
